The record followed here is article PMC7819943, “Rice protein-binding microarrays: a tool to detect cis-acting elements near promoter regions in rice”.

Chains of the proteins cited; added tags and fusions are not shown.
UniProt Q0JBA9, entry or part of it: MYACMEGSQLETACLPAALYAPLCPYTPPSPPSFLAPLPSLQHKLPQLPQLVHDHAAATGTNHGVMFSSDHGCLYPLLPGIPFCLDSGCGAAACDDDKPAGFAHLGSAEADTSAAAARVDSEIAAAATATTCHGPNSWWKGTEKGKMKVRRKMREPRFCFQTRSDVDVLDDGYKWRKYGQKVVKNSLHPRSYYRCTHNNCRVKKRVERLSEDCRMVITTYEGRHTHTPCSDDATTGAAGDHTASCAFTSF

This is one part of the list.

The test concerns the target OsWRKY34 (Oryza sativa, UniProt Q0JBA9 1-250). The test is described as follows: protein-binding microarray (RPBM); PBS, 2% BSA, 51.3 ng/ul salmon testes DNA, 50 uM zinc acetate, 200 nM TF, 25 C, 1 h; high values mean tight binding. The settings on record: protein: recombinant; tags: N-terminal polyhistidine and DsRed monomer fusion (pET32a); label: CyDye5-dUTP incorporated in the synthesized complementary strand; 3' TTTTT single-stranded linker to array surface; dsDNA, one strand shown. Summed up: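 In PBS with 2% BSA, salmon testes DNA and 50 µM zinc acetate, 200 nM protein was incubated on a custom Agilent array at 25 °C for 1 h and then washed off. The array had been made double-stranded by primer extension with Cy5-dUTP and blocked with 2% BSA. The proteins were transcription factors fused N-terminally to polyhistidine and DsRed, expressed in E. coli BL21-CodonPlus and purified on Ni–NTA. The binding signal is per-feature fluorescence intensity (arbitrary units) from an Axon 4000B scanner.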
On to “GATCCATTCGGCGCATTTCATTATATGATTATCCCACACTCGGAGTCACCTAGTGCAG”, for which the binding signal was 10300 fluorescence intensity (a.u.).

“GAAAAGCACTCACTCAAGTCTCCATGGCATTTCCTACTTCCGGAGTCACCTAGTGCAG”: the binding signal is 11800 fluorescence intensity (a.u.).

On to “GGCTTTGTATTTTGGTGTTGAGTCCCTTCCATACAAGAACCGGAGTCACCTAGTGCAG”, for which the binding signal is 8040 fluorescence intensity (a.u.).

Consider “CCTGTGTTTTGCAATTCTCTGTTTTACACTTACATTCCAACGGAGTCACCTAGTGCAG”, for which the binding signal is 8160 fluorescence intensity (a.u.).

As for “ACTAGTACATTGTTAGTCATCCTGGGTTTTTCCTCCAAAACGGAGTCACCTAGTGCAG”, the binding signal is 8450 fluorescence intensity (a.u.).

Consider “TCCCTTTCTGTTCCGGCCGCCTCGATCGCCCGCTACCCGCCGGAGTCACCTAGTGCAG”, for which the binding signal is 10000 fluorescence intensity (a.u.).

“CTTTCTTATTGTCGGCGTTGTCATCCATCCAAAACCTCTACGGAGTCACCTAGTGCAG”: the binding signal is 13000 fluorescence intensity (a.u.).

For the sequence “CTCAACGAGTTCTTCCGCCGCACCTCAACGCGTCACCCCTCGGAGTCACCTAGTGCAG”, the binding signal is 9170 fluorescence intensity (a.u.).

Consider “GAGTCAGACCCACTTGGGCGGGGCGGGGCGCGGCGCGGCGCGGAGTCACCTAGTGCAG”, for which the binding signal is 13600 fluorescence intensity (a.u.).

Regarding “GCTTCATCGATTCTTGCGTGTCCTTTTGGATTAGTGTGCACGGAGTCACCTAGTGCAG”, the binding signal is 9350 fluorescence intensity (a.u.).

Regarding “GCAAACTTGCAAACCGTTCTTTTTCAGATAACCTTTTTTTCGGAGTCACCTAGTGCAG”, the binding signal is 8700 fluorescence intensity (a.u.).

As to “GCTTTCTGGCCTGCGGAACCACGCATTCGGCTACCAGCTCCGGAGTCACCTAGTGCAG”, the binding signal is 8120 fluorescence intensity (a.u.).

Turning to “GCATTTTTTTTCCAAATACTCTTGTTACTCACAGTCTCCGCGGAGTCACCTAGTGCAG”, the binding signal is 8760 fluorescence intensity (a.u.).

As for “AGAACTCTACATGTCTCTTAAATGACCATTCCCGTCTAGGCGGAGTCACCTAGTGCAG”, the binding signal was 8500 fluorescence intensity (a.u.).

Consider “CGGACCCCATACACCTCCGCCCGATTCCCGACGCAAATCCCGGAGTCACCTAGTGCAG”, for which the binding signal was 9260 fluorescence intensity (a.u.).

In the case of “ACATCCATCCTGGTGAGCACATCCTCCGCCACCGCCGACCCGGAGTCACCTAGTGCAG”, the binding signal is 9140 fluorescence intensity (a.u.).

In the case of “TCCCCTTCGCCCTTCGTCGTCGTCGTCGTCGTCGTTCGTCCGGAGTCACCTAGTGCAG”, the binding signal was 8050 fluorescence intensity (a.u.).

For “TGTATGTTGAGCTTTAGGTATTTAATGGGTATTAGCTTTACGGAGTCACCTAGTGCAG”, the binding signal is 8090 fluorescence intensity (a.u.).

On to “CTAGCTTCTGTCTTGATTCATTTGCTCATAGGCCTATCTTCGGAGTCACCTAGTGCAG”, for which the binding signal was 12800 fluorescence intensity (a.u.).

“AACATCTCTAGTCTTGTAATACTTTATCTCTAATTGTTCACGGAGTCACCTAGTGCAG”: the binding signal is 9460 fluorescence intensity (a.u.).

Take “GACCTTTTTACTTACATATTGTTTTTGGCCATAGATTATTCGGAGTCACCTAGTGCAG”: the binding signal is 9630 fluorescence intensity (a.u.).

As for “ACAAACGTTTGACCATTCGTTTTATTCAAAATTTTTGTGCCGGAGTCACCTAGTGCAG”, the binding signal is 8960 fluorescence intensity (a.u.).

With “GGGTGGGAGGGATTCGTATGGCGTCGCCGGAGGAGAGCGCCGGAGTCACCTAGTGCAG”, the binding signal is 10100 fluorescence intensity (a.u.).

With “ACATTTCTCTCTATTTTTCCTAGCAGATAAACGCAATGTACGGAGTCACCTAGTGCAG”, the binding signal was 10200 fluorescence intensity (a.u.).

As to “CGCACGGTTGTTCTCGCCATGATCCTCCTTGCCGCTGTCACGGAGTCACCTAGTGCAG”, the binding signal is 8780 fluorescence intensity (a.u.).

“TTTCTCCTCACCAAGCTGACCACTCTCTGGAAGCATCAGCCGGAGTCACCTAGTGCAG”: the binding signal was 8500 fluorescence intensity (a.u.).

With “GCCAAGCTCGCCAATTCGCACATGCCTCCATTGTCACACACGGAGTCACCTAGTGCAG”, the binding signal is 8870 fluorescence intensity (a.u.).

Take “GATTTTTTTTTCTTACTGTTTTTGCAGGGGCTGGGCATGACGGAGTCACCTAGTGCAG”: the binding signal is 11400 fluorescence intensity (a.u.).

On to “CCTCCTCCTCACGCCACTGTCGTCGTCGTGTTCCTCTTTCCGGAGTCACCTAGTGCAG”, for which the binding signal is 8800 fluorescence intensity (a.u.).

Turning to “TACATAAACTTTCAATTTTTTCCTTCAAACTTACAATTTTCGGAGTCACCTAGTGCAG”, the binding signal was 8670 fluorescence intensity (a.u.).

Consider “GCAGGGGCGGGCCCACAATGATTCATGGGTATTCAAATGACGGAGTCACCTAGTGCAG”, for which the binding signal is 9020 fluorescence intensity (a.u.).

For the sequence “TCTGTTCTAAAACCACAGACCATCCTCTTTTATCATTTCACGGAGTCACCTAGTGCAG”, the binding signal is 8340 fluorescence intensity (a.u.).

Regarding “TTGCATCAGGATCACTCTCGTCTTCTTCGCTGTTGTTTTGCGGAGTCACCTAGTGCAG”, the binding signal is 13900 fluorescence intensity (a.u.).

As to “CCCGCACGCCACCACCTCACCCACCTATCCACGTCAACTCCGGAGTCACCTAGTGCAG”, the binding signal was 12100 fluorescence intensity (a.u.).

Consider “CAGTTAGGGGTGGGCATTCGGTCAGACCGAAAAATTCGGTCGGAGTCACCTAGTGCAG”, for which the binding signal was 15500 fluorescence intensity (a.u.).

For “CGTTTTTCTATTGTGTTATCTCTGACCGCTGGAAATTCAACGGAGTCACCTAGTGCAG”, the binding signal is 9220 fluorescence intensity (a.u.).

In the case of “TATTGGTGTTTGGTTGGTCTATACAGGAAGTGGTAGTACACGGAGTCACCTAGTGCAG”, the binding signal was 8830 fluorescence intensity (a.u.).

With “CGGGCTCTGTGTGATCTTAGCCGCTCCGCCGCCACTCACTCGGAGTCACCTAGTGCAG”, the binding signal is 8270 fluorescence intensity (a.u.).

On to “GAGCACCCATGCGGTATTGAATGTGTATCTTTTTTTTACACGGAGTCACCTAGTGCAG”, for which the binding signal is 9190 fluorescence intensity (a.u.).

Regarding “CCATCGTTTCTCCCCGACGCCCTCGCCATCCTCCTCGCCACGGAGTCACCTAGTGCAG”, the binding signal is 10500 fluorescence intensity (a.u.).

In the case of “GAGTGGTTTTTCTTTTACTTTCTCTTTTCCCCTTTTCAATCGGAGTCACCTAGTGCAG”, the binding signal is 12300 fluorescence intensity (a.u.).

With “ATCTCTCTAGCTCCTTGTATCGGGCAACACATTCCTTGATCGGAGTCACCTAGTGCAG”, the binding signal was 9660 fluorescence intensity (a.u.).
